According to US7348407:
No constants are given. Whether binding was seen depends on the method and setting. Binding seen in cells or lysates may run through a third protein. Some results given as binding are weak or reduced against the parent protein; the word gives no strength. For part of these data: Where a sequence is shown, tags or fusion partners need not be part of it.

The chains behind the UniProt entries cited, without tags or fusion partners. Residues count along the entry.
UniProt Q9QXM1: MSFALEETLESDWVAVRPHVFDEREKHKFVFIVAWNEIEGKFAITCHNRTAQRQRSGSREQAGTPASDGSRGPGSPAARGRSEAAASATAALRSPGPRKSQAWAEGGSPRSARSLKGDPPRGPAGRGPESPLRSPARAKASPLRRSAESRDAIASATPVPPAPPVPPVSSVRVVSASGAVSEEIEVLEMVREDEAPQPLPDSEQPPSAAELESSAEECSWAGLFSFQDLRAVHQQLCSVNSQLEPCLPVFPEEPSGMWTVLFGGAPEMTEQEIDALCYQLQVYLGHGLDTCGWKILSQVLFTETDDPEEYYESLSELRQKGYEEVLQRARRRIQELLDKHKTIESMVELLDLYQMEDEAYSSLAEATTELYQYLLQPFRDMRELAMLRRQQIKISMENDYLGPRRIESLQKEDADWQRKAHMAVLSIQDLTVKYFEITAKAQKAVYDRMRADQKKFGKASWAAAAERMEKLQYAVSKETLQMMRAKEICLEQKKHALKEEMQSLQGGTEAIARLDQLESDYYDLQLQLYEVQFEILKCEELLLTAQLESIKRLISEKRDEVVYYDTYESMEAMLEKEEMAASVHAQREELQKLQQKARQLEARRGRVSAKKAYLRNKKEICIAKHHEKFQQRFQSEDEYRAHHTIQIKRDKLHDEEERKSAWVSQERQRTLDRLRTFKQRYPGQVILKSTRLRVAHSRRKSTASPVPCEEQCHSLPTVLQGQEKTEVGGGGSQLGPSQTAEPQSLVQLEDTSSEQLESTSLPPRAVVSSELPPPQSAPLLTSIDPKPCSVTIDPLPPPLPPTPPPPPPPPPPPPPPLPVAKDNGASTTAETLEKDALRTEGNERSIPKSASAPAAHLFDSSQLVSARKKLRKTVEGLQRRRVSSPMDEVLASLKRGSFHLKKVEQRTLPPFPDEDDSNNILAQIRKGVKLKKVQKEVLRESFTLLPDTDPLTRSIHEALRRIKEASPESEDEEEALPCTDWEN
UniProt Q09472: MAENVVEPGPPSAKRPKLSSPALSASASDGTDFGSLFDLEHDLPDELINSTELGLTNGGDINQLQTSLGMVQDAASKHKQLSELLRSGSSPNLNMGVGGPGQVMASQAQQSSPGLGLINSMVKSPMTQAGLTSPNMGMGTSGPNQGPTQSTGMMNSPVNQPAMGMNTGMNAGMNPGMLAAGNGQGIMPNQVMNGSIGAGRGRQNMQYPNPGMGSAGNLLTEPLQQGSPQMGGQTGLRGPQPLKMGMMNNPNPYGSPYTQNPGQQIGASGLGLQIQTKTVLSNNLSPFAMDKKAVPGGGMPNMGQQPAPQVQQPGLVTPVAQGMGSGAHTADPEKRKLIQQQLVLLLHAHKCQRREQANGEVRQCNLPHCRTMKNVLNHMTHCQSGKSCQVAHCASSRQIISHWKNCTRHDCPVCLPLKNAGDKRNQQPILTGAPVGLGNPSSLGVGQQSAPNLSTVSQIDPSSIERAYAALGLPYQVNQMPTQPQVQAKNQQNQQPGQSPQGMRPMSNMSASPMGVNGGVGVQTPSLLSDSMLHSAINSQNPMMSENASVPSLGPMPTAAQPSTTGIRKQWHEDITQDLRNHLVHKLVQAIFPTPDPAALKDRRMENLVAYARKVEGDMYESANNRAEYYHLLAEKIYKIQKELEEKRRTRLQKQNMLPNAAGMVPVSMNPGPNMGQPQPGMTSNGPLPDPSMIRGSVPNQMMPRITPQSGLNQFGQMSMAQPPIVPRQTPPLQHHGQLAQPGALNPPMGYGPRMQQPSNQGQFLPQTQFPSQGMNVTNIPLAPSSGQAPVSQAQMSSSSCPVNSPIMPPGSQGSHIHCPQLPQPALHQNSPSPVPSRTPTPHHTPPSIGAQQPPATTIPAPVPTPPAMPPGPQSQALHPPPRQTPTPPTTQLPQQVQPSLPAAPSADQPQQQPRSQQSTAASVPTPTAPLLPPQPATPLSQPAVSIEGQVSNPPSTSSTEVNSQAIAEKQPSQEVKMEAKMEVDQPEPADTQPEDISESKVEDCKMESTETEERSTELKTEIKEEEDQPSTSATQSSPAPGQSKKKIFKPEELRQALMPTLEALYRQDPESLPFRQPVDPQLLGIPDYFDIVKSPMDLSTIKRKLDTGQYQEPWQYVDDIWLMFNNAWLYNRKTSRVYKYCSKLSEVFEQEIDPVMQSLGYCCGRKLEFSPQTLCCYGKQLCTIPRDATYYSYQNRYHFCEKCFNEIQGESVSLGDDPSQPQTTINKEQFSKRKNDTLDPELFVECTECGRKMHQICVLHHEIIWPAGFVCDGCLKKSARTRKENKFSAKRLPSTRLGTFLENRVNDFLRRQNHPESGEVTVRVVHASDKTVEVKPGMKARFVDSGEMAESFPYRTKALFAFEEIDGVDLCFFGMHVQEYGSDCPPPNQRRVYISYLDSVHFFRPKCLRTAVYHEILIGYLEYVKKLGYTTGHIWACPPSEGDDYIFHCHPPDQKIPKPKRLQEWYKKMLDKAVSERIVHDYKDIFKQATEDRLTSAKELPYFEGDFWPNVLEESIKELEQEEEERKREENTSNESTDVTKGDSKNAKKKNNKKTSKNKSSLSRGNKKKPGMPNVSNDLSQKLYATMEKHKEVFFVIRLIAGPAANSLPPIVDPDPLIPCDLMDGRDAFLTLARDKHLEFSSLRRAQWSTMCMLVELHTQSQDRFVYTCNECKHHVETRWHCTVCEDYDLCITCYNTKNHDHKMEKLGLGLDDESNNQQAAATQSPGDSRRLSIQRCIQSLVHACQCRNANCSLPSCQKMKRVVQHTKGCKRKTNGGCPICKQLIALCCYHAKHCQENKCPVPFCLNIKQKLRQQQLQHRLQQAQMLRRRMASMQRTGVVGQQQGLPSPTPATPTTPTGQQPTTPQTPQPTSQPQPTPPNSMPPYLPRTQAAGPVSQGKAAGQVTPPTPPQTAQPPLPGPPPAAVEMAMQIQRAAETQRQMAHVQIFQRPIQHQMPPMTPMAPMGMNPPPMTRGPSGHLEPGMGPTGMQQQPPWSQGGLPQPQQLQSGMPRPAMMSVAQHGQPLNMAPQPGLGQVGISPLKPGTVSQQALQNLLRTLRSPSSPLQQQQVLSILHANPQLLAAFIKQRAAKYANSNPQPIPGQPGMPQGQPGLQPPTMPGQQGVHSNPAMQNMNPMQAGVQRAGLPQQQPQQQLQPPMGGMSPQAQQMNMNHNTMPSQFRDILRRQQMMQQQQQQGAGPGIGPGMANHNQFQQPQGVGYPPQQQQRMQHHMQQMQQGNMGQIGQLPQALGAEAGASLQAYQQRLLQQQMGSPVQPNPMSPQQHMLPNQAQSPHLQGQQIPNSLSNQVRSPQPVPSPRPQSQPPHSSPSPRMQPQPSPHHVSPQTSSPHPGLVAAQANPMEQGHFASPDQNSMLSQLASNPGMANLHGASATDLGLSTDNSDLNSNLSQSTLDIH
UniProt B2RWS6, residues 2-2412: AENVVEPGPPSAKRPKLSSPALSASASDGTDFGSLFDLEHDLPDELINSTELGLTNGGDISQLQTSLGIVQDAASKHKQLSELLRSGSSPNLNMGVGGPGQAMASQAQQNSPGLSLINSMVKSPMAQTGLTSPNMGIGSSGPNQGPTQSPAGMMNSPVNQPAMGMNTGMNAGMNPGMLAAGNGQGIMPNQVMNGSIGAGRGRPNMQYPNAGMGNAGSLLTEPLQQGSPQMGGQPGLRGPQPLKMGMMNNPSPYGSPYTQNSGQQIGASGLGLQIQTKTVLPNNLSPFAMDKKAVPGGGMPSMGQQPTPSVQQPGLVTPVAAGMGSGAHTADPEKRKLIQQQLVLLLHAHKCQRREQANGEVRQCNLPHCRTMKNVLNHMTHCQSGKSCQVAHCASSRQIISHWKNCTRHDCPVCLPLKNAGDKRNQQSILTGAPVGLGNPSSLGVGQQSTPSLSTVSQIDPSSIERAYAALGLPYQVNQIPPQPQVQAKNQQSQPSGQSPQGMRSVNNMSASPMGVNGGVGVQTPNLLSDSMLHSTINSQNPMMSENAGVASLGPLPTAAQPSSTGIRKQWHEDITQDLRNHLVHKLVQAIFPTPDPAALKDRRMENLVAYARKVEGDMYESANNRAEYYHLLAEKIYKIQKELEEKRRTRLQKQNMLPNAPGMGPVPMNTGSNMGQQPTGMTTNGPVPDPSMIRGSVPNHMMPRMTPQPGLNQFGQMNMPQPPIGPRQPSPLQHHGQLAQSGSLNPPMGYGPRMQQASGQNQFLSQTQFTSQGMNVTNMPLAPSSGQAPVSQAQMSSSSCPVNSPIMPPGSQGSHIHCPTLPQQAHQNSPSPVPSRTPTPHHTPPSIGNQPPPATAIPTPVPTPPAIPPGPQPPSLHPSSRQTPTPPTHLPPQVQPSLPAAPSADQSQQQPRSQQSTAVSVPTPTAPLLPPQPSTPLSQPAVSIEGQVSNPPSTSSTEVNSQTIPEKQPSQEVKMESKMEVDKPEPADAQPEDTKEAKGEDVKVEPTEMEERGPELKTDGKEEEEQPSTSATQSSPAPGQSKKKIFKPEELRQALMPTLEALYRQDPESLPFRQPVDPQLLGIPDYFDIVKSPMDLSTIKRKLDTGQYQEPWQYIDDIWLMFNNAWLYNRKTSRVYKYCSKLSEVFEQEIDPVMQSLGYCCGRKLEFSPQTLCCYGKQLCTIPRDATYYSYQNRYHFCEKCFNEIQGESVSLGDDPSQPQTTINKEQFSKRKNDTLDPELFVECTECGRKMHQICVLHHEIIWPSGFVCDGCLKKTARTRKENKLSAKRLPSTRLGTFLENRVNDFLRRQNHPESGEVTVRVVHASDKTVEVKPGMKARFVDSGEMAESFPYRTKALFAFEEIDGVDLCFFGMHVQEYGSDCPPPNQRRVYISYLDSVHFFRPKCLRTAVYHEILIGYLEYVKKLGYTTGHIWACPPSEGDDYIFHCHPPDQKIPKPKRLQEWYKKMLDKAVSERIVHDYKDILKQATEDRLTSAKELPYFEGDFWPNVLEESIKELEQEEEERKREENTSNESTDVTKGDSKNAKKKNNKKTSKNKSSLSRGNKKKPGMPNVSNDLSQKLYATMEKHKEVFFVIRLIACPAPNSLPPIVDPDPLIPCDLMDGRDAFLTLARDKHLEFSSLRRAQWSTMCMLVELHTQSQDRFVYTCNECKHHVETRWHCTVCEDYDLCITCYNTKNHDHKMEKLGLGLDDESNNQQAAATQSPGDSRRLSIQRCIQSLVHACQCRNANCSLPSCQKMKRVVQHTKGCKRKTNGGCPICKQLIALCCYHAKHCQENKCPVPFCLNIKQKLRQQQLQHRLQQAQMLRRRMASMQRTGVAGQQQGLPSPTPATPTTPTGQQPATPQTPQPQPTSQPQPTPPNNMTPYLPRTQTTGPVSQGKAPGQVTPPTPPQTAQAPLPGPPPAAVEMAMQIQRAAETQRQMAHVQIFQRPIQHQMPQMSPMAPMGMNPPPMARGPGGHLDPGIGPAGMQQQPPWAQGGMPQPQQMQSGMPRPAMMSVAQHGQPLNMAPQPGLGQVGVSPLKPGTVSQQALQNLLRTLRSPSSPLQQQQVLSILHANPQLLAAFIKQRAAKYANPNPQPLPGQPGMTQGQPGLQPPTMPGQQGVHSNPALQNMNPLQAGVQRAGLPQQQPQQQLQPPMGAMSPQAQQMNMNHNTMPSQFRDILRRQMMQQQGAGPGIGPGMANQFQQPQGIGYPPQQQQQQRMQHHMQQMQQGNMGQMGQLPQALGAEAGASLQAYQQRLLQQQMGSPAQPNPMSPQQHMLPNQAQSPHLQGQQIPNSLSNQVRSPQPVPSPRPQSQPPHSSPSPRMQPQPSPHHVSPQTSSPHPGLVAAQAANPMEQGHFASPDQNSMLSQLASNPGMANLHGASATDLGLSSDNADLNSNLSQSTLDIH

Columns and labels:
[1] = biological target: JMY (pCMV-JMY, expressed in transfected cells) (UniProt Q9QXM1); experiment: co-immunoprecipitation from transfected U2OS cells: anti-HA immunoprecipitation, anti-JMY immunoblot
[2] = biological target: p300 (pCMV-p300, expressed in transfected cells) (UniProt Q09472); experiment: co-immunoprecipitation from transfected U2OS cells: anti-HA immunoprecipitation, anti-p300 immunoblot
[3] = biological target: endogenous p300 in murine A31 cells (murine) (UniProt B2RWS6); experiment: co-immunoprecipitation of endogenous proteins: anti-p300 immunoprecipitation, anti-STRAP immunoblot

Binder | binding [1] | binding [2] | binding [3]
HA-tagged STRAP (pCMV-HA-STRAP8-438) (protein, not shown: small tags and cut ends) EAKHVLQKLQGLVDRLYCFRDSYFETHSVEDAGRKQQDVQEEMEKTLQQMEEVLGSAQVEAQALMLKGKALNVTPDYSPEAEVLLSKAVKLEPELVEAWNQLGEVYWKKGDVTSAHTCFSGALTHCKNKVSLQNLSMVLRQLQTDSGDEHSRHVMDSVRQAKLAVQMDVLDGRSWYILGNAYLSLYFNTGQNPKISQQALSAYAQAEKVDRKASSNPDLHLNRATLHKYEESYGEALEGFSQAAALDPAWPEPQQREQQLLEFLSRLTSLLESKGKTKPKKLQSMLGSLRPAHLGPCGDGRYQSASGQKMTLELKPLSTLQPGVNSGTVVLGKVVFSLTTEEKVPFTFGLVDSDGPCYAVMVYNVVQSWGVLIGDSVAIPEPNLRHHQIRHKGKDYSFSSVRVETPLLLVVNGKPQNSSSQASATVASRPQ | binds | binds | 
endogenous STRAP in murine A31 cells (protein) MMADEEEEAKHVLQKLQGLVDRLYCFRDSYFETHSVEDAGRKQQDVQEEMEKTLQQMEEVLGSAQVEAQALMLKGKALNVTPDYSPEAEVLLSKAVKLEPELVEAWNQLGEVYWKKGDVTSAHTCFSGALTHCKNKVSLQNLSMVLRQLQTDSGDEHSRHVMDSVRQAKLAVQMDVLDGRSWYILGNAYLSLYFNTGQNPKISQQALSAYAQAEKVDRKASSNPDLHLNRATLHKYEESYGEALEGFSQAAALDPAWPEPQQREQQLLEFLSRLTSLLESKGKTKPKKLQSMLGSLRPAHLGPCGDGRYQSASGQKMTLELKPLSTLQPGVNSGTVVLGKVVFSLTTEEKVPFTFGLVDSDGPCYAVMVYNVVQSWGVLIGDSVAIPEPNLRHHQIRHKGKDYSFSSVRVETPLLLVVNGKPQNSSSQASATVASRPQCE |  |  | binds
